Assay results published in article PMC11664589 (Journal of the American Chemical Society, 2024).
For part of these data: End groups of sequences in plain letters are not given here.

Tests used:
[1] = general procedure: Fmoc solid-phase peptide synthesis in flow; NovaPEG Rink Amide; conditions: whole synthesis
[2] = general procedure: Fmoc solid-phase peptide synthesis in flow; PEG resin; Rink amide, HMPB, photolinker or MeDbz linker
[3] = general procedure: Fmoc solid-phase peptide synthesis in flow; NovaPEG Rink Amide resin; conditions: whole synthesis
[4] = Fmoc solid-phase peptide synthesis in flow; PEG resin; Rink amide, HMPB, photolinker or MeDbz linker; conditions: whole synthesis
[5] = general procedure: Fmoc solid-phase peptide synthesis in flow; photolinker on NovaPEG Amino resin; conditions: whole synthesis, scale 124 µmol
[6] = coupling step, UHPLC AUC at 214 nm, LCMS

H2N-HAEGTFTSDVSSYLEGQAAKEFIAWLVKGRRRRRRRRRR-CONH2
crude mass ([1]; scale 20 µmol): 6.7 mg
crude LC-MS purity ([2]; whole synthesis, 214 nm): 85%
crude HPLC purity ([2]; whole synthesis, AUC at 214 nm): 66%

H2N-KGAIIGLMVG GVVIA-MeNbz -RRRRRR-CONH2
crude HPLC purity ([2]; whole synthesis, 214 nm): 73%
crude LC-MS purity ([2]; whole synthesis, 214 nm): 70%
final HPLC purity ([2]; whole synthesis, 214 nm): >95%
final LC-MS purity ([2]; whole synthesis, 214 nm): 93%
isolated yield ([2]; whole synthesis, overall): 7%
crude mass ([2]; whole synthesis, scale 10 µmol): 5.9 mg

H2N-KGAIIGLMVG GVVIARRRRR R-CONH2
crude mass ([3]; scale 21 µmol): 4.4 mg
crude LC-MS purity ([2]; whole synthesis, 214 nm): 62% purity
crude HPLC purity ([2]; whole synthesis, AUC at 214 nm): 48% purity

H2N-MPLNVSFTNRNYDLDYDSVQPYFYCDEEENFYQQQQQSELQPPAPSEDIWKKFELLPTPPLSPSRRSGLCSPSYVAVTPFSLRG-MeNbz -RRRRRR-CONH2
crude HPLC purity ([4]; 214 nm): 39%
crude LC-MS purity ([4]; 214 nm): 40%
final HPLC purity ([4]; 214 nm): >95%
final LC-MS purity ([4]; 214 nm): 95%
isolated yield ([4]; overall): 0.5%

H2N-MPLNVSFTNRNYDLDYDSVQPYFYCDEEENFYQQQQQSELQPPAPSEDIWKKFELLPTPPLSPSRRSGLCSPSYVAVTPFSLRGCNDGGGGSFSTADQLEMVTELLGGDMVNQSFICDPDDETFIKNIIIQDCMWSGFSAAAKRRRRRR -CONH2
crude HPLC purity ([2]; coupling step, 214 nm): 17%
final HPLC purity ([2]; coupling step, 214 nm): 96%
crude LC-MS purity [2, 6]: 39%
final HPLC purity [2, 6]: 96%
final LC-MS purity [2, 6]: 92%
step yield ([2]; coupling step, isolated yield): 35%

H2N-NDGGGGSFSTADQLEMVTELLGGDMVNQSFICDPDDETFIKNIIIQDCMWSGFSAAAKRRRRRR-CONH2
crude mass ([3]; scale 30 µmol): 14 mg
crude LC-MS purity ([2]; whole synthesis, 214 nm): 39% purity
crude HPLC purity ([2]; whole synthesis, AUC at 214 nm): 27% purity

H2N-RRRRRRHAEGTFTSDVSSYLEGQAAKEFIAWLVKGR-CONH2
crude mass ([1]; scale 21 µmol): 18 mg
crude LC-MS purity ([2]; whole synthesis, 214 nm): 67%
crude HPLC purity ([2]; whole synthesis, AUC at 214 nm): 65%

H2N-TTCCPSIVARSNFNVCRLPGTPEALCATYTGCIIIPGATCPGDYAN-CONH2
crude HPLC purity ([2]; whole synthesis, 214 nm): approx. 7%
crude mass ([2]; whole synthesis, scale 31 µmol): 7.6 mg

H2N-TTCCPSIVARSNFNVCRLPGTPEALCATYTGCIIIPGATCPGDYAN-MeNbz- RRRRRR-CONH2
crude HPLC purity ([2]; whole synthesis, 214 nm): approx. 19%
crude mass ([2]; whole synthesis, scale 31 µmol): 3.3 mg

H2N-YLRIVQCRSV EGSCGFPPPP PP-CONH2
crude mass ([1]; scale 21 µmol): 6.6 mg
crude HPLC purity ([2]; whole synthesis, 214 nm): 28% purity by UHPLC
crude LC-MS purity ([2]; whole synthesis, 214 nm): 33% purity by LCMS

H2N-YLRIVQCRSV EGSCGFQQQQ QQ-CONH2
crude mass ([1]; scale 21 µmol): 5.9 mg
crude HPLC purity ([2]; whole synthesis, 214 nm): 77% purity by UHPLC
crude LC-MS purity ([2]; whole synthesis, 214 nm): 69% purity by LCMS

H2N-YLRIVQCRSV EGSCGFRRRR RR-CONH2
crude HPLC purity ([2]; whole synthesis, 214 nm): 73% purity by UHPLC

RRRRRRRRR
crude LC-MS purity ([2]; whole synthesis, 214 nm): 52% purity
crude mass [5]: 8.6 mg
